These are yes or no findings as the source states them, for the method shown. For some of these results: Binding calls can cover weak binding; strength is not graded here. For some of these results: Tags and fused reporters may be left off the sequences shown. For some of these results: In cells and extracts the contact can be indirect.
Key:
[1] = biological target: Myc-tagged GP73 mutant WT2-ΔK2 (human) (UniProt Q8NBJ4); assay: co-IP; HEK293 co-transfected with Flag-MAVS (2 μg) and Myc-tagged GP73 or mutants (3 μg) for 24 h; immunoprecipitated with anti-Myc; WB (S3B Fig)
[2] = biological target: Myc-tagged GP73 mutant WT2-K2E (human) (UniProt Q8NBJ4); assay: as above
[3] = biological target: T1, GST-GP73 (aa36-401) (human, UniProt Q8NBJ4 36-401); assay: pull-down; purified MBP, MBP-M11 or MBP-T6CC (20 μg) with 10 μg GST or 20 μg GST-GP73 overnight at 4°C; WB (S4A Fig); both purified
T1 construct: also called recombinant GST-GP73; GST-fused GP73; source: E. coli BL21, purified (glutathione Sepharose 4B)
T1 sequence (looked up): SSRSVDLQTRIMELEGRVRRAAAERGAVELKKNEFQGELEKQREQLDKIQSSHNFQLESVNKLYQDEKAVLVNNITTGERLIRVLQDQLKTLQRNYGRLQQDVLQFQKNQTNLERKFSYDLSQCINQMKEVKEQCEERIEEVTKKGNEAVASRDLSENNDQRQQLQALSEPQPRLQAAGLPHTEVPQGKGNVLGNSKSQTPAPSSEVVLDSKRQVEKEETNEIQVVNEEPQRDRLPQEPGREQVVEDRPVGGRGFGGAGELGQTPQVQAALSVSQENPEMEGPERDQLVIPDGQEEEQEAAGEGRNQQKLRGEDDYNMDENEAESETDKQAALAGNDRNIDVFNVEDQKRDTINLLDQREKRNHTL

Sequences of proteins named here, by UniProt entry; tags and fusion partners are left off. A change or cut given only in a name is not applied to a line headed by its entry.
UniProt Q7Z434: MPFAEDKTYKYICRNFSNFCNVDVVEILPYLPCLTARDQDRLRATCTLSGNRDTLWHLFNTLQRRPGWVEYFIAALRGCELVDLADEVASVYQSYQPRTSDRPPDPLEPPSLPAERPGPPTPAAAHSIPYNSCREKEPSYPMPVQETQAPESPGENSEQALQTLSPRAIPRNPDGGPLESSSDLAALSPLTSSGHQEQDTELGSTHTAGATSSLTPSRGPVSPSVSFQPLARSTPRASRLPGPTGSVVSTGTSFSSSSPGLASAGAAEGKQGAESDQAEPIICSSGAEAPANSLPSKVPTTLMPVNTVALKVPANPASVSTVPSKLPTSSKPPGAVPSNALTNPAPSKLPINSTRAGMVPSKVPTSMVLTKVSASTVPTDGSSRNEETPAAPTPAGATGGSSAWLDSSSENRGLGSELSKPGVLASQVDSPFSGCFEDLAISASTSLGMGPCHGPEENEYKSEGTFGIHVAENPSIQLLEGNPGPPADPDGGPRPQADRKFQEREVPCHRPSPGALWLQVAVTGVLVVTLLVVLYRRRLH

[4] = biological target: FL MAVS ΔTIM3 (UniProt Q7Z434); assay: co-IP; HEK293 co-transfected with GP73 plasmid and Flag-tagged (or indicated) plasmids for 24 h; lysis in 50 mM Tris-HCl, 150 mM NaCl, 1% Triton X-100, 1 mM EDTA, 10% glycerol, pH 7.4; immunoprecipitated with anti-Flag (or IgG), washed with 300 mM NaCl buffer, WB; Fig 3B, 3C, 4C-F, S4B (for Fig 4C-F the antibodies are only 'indicated')
[5] = biological target: M12 MAVS ΔTIM3 (UniProt Q7Z434); assay: as above
[6] = biological target: M11 MAVS ΔTIM3 (UniProt Q7Z434); assay: as above
[7] = biological target: MAVS in Huh7-MAVSR cells (MAVS-C508R, MAVSR) (UniProt Q7Z434); assay: co-IP; Huh7-MAVSR cells infected with HCV (MOI = 2) for the indicated days; immunoprecipitation and WB with antibodies against indicated proteins (Fig 3E)

Question: Which results are given for “Flag-MAVS (mitochondrial antiviral signaling protein), full length (from UniProt Q7Z434 1-540)”?
Answer: binding [1]: binds; binding [2]: binds

Question: With “MBP-T6CC (TRAF6 coiled-coil domain) (domain or fragment)” as the molecule, how does the binding [3] read?
Answer: binds

B1: HA-GP73 (Golgi protein 73) (protein, UniProt Q8NBJ4 1-401)
chain: MMGLGNGRRSMKSPPLVLAALVACIIVLGFNYWIASSRSVDLQTRIMELEGRVRRAAAERGAVELKKNEFQGELEKQREQLDKIQSSHNFQLESVNKLYQDEKAVLVNNITTGERLIRVLQDQLKTLQRNYGRLQQDVLQFQKNQTNLERKFSYDLSQCINQMKEVKEQCEERIEEVTKKGNEAVASRDLSENNDQRQQLQALSEPQPRLQAAGLPHTEVPQGKGNVLGNSKSQTPAPSSEVVLDSKRQVEKEETNEIQVVNEEPQRDRLPQEPGREQVVEDRPVGGRGFGGAGELGQTPQVQAALSVSQENPEMEGPERDQLVIPDGQEEEQEAAGEGRNQQKLRGEDDYNMDENEAESETDKQAALAGNDRNIDVFNVEDQKRDTINLLDQREKRNHTL
Question: Which results are given for B1?
Answer: binding [4]: binds weakly; binding [5]: binds weakly; binding [6]: no binding

B2: endogenous GP73 (Huh7-MAVSR) (protein, UniProt Q8NBJ4 1-401)
chain: MMGLGNGRRSMKSPPLVLAALVACIIVLGFNYWIASSRSVDLQTRIMELEGRVRRAAAERGAVELKKNEFQGELEKQREQLDKIQSSHNFQLESVNKLYQDEKAVLVNNITTGERLIRVLQDQLKTLQRNYGRLQQDVLQFQKNQTNLERKFSYDLSQCINQMKEVKEQCEERIEEVTKKGNEAVASRDLSENNDQRQQLQALSEPQPRLQAAGLPHTEVPQGKGNVLGNSKSQTPAPSSEVVLDSKRQVEKEETNEIQVVNEEPQRDRLPQEPGREQVVEDRPVGGRGFGGAGELGQTPQVQAALSVSQENPEMEGPERDQLVIPDGQEEEQEAAGEGRNQQKLRGEDDYNMDENEAESETDKQAALAGNDRNIDVFNVEDQKRDTINLLDQREKRNHTL
Question: B2 was tested. Which binding [7] did it give?
Answer: binds
